Laboratory results published in PMC5623908.
Results are given in words; binding and its absence hold for the method and conditions named. Binding seen in cells or lysates may run through a third protein. Some binding calls cover weakened binding; strength is not graded here. For some assays here: Tags and fused reporters may be left off the sequences shown. Values belong to the substance of their own block, whether it stands above or below them.

The chains behind the UniProt entries cited, without tags or fusion partners.
UniProt P46937: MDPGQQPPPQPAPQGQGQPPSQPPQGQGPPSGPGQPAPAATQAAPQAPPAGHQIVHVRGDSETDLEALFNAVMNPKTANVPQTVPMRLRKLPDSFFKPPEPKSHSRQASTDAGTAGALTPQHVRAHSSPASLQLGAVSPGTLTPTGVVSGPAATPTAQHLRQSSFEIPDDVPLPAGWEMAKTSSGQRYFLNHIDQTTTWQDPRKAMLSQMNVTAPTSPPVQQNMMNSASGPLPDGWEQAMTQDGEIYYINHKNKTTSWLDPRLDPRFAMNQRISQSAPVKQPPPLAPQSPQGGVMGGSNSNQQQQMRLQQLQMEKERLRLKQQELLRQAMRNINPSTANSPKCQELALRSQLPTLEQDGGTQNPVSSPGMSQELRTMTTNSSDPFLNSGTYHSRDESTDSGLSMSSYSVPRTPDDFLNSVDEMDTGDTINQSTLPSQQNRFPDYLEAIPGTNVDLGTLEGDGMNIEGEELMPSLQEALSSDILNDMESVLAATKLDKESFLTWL
UniProt Q04206: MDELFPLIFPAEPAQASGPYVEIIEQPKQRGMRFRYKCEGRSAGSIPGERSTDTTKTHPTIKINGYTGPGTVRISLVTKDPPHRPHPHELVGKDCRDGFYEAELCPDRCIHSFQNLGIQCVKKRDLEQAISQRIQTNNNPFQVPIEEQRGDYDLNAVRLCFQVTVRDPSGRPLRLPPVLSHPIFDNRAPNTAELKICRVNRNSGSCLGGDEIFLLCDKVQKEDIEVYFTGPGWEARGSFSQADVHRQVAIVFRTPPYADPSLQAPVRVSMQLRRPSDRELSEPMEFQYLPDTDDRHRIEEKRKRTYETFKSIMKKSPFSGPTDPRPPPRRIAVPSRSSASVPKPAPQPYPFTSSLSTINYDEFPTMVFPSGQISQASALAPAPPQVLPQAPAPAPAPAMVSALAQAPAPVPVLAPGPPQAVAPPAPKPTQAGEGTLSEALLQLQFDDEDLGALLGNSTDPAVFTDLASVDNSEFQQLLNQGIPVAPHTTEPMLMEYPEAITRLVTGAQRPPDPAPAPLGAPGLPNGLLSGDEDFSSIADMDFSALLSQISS

Tests used:
Flag-YAP = Flag-YAP (UniProt P46937); test: co-IP; 293T cells co-transfected with both tagged proteins; lysis in 50 mM Tris-HCl pH 7.4, 150 mM NaCl, 1% Triton X-100; antibody-conjugated beads 3 h; western blot; for GFP-YAP and Myc-p65 also after 10 μM TPCA-1 or 10 μM IKK-16 for 18 h
HA-IKKβ = target: T1, HA-IKKβ (UniProt O14920); test: as above
T1 sequence: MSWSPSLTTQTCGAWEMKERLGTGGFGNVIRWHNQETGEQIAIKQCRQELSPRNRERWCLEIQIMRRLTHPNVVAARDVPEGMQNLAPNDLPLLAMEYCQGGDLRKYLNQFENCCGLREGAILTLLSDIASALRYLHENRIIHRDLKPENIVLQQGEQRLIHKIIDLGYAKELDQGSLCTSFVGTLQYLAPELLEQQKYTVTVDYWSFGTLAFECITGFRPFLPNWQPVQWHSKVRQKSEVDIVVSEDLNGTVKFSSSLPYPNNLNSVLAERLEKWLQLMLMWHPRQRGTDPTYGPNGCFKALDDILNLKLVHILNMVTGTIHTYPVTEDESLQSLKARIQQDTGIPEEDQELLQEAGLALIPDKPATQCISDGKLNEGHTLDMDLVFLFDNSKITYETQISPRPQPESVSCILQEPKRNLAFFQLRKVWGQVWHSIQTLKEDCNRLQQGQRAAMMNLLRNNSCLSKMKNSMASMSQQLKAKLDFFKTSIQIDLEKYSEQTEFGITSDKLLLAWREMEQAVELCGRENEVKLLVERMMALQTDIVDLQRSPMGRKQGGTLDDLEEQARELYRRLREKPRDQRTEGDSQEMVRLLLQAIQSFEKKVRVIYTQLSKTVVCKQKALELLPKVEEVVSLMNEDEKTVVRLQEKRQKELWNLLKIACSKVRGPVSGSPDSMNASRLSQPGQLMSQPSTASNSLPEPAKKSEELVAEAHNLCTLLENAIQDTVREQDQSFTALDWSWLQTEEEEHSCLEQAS

HA-IKKε = target: T2, HA-IKKε (UniProt Q14164); test: as above
T2 sequence: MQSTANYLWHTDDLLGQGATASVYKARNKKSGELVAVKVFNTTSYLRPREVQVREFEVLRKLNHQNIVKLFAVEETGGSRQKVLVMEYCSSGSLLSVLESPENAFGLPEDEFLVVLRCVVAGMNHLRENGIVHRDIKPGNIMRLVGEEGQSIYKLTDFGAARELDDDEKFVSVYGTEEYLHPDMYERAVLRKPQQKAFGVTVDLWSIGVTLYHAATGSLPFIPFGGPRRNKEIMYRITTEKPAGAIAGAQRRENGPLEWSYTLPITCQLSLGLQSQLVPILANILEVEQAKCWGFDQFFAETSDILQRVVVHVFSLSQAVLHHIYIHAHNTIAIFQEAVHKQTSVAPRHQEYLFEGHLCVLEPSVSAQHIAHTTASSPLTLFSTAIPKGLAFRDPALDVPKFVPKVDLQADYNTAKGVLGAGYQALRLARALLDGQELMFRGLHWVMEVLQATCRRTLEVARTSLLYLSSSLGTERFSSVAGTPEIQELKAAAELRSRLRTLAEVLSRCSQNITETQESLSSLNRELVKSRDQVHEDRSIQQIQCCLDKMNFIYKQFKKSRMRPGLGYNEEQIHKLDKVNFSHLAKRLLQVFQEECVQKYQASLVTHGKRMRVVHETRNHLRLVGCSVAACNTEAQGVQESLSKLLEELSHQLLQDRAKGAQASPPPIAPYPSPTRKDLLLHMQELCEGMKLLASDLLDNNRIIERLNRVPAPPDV

Myc-p65 = Myc-p65 (UniProt Q04206); test: as above
[1] = target: YAP (endogenous, MCF7) (human (endogenous in MCF7)) (UniProt P46937); test: co-IP; endogenous proteins of MCF7 cells; immunoprecipitation with YAP antibody (rabbit IgG as control); cells treated with 10 μM TNFα for 12 h (p65), or with 10 μM TPCA-1 or 10 μM IKK-16 for 12 h or siRNA against IKKβ and/or IKKε (TEAD4)

binding (Flag-YAP): binds
Substance: GFP-p65 (from UniProt Q04206 1-551)

binding (HA-IKKβ): binds | binding (HA-IKKε): binds | binding (Myc-p65): binds
Substance: GFP-YAP (from UniProt P46937 1-504)

binding [1]: binds
Substance: p65 (endogenous, MCF7) (from UniProt Q04206 1-551)
